# Values of other authors in patent US20140045927A1, “PREPARATIONS OF TAXANES FOR INTRAVENOUS ADMINISTRATION AND THE PREPARATION METHOD THEREOF” (Tianjin Tasly Group Co., Ltd., priority 2009, published 2014).
# Details: in water
smiles,measurement,value
CC(=O)O[C@H]1C(=O)[C@@]2(C)[C@H]([C@H](OC(=O)c3ccccc3)[C@]3(O)C[C@H](OC(=O)[C@H](O)[C@@H](NC(=O)c4ccccc4)c4ccccc4)C(C)=C1C3(C)C)[C@]1(OC(C)=O)CO[C@@H]1C[C@@H]2O [paclitaxel],water-solubility,4 µg/mL
